Measured values taken from paper PMC4122391, “Analysis of Functions of VIP1 and Its Close Homologs in Osmosensory Responses of Arabidopsis thaliana”.
The comparison behind a weaker result is the experiment's own reference, which may not be listed here. Where a protein sequence is shown, tags need not be part of it. Construct, isoform or probe ends are uncertain for at least one entry. At least one verdict was read from the data and is not stated in words by the source.

Target: T1, GST-VIP1ΔN164 (Arabidopsis thaliana) (UniProt Q9MA75)
T1 sequence (looked up): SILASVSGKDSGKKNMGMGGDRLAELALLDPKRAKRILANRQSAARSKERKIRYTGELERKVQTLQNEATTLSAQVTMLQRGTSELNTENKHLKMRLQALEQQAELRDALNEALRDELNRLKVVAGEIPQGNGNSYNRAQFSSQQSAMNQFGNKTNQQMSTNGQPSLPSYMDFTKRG
Experiment: competition with a labelled probe
Settings: EMSA, CYP707A1 probe, recombinant protein, residues 165-341, protein details: N-terminal GST

[1] = less effective than A1/A3 and rbe

Sequence | binding result [1] | binding result (less effective than A1/A3)
CATGCTCCGTTGGATGT (double strand) [vs-2] | binds more weakly | 
CCAGTGTGGCGCTGG (double strand) [Box-II] | binds more weakly | 
CCCCAAAGTCCAGCTTGAAAT (double strand) [rbe (RSG-binding element)] |  | binds more weakly
TCAGACACGTGGCATG (double strand) [G-box] | binds more weakly | 
